Measurements reported in PubChem BioAssay AID504834 (National Center for Advancing Translational Sciences (NCATS), 2011).
Hit rate of the full screen: of about 320,000 compounds, about 22,000 (6.9%) were called active. The inconclusive results got no clear call from the source; some entries with a clear call stand among them for comparison. The call rests on the fitted dose curve; in most records, active means well fitted inhibition curve with a large enough effect; inconclusive means small, poorly fitted or top-dose-only effect, or another doubt; inactive means no such curve, though single readings can be large or run the other way. Potencies beside an inconclusive call are fits to weak or partial responses and may not hold up.

Test: Primary qHTS for delayed death inhibitors of the malarial parasite plastid, 96 hour incubation
Conditions: P. falciparum luciferase reporter growth; series mostly up to 28.7 µM; activity change, negative = inhibition: at the top concentration
Outline: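 96 h incubation, 37 C, 5% CO2, of luciferase-reporter P. falciparum-infected RBCs (2% hematocrit, 0.05% parasitemia final) with test compounds; endpoint luminescence.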
On the % scale 0 is the no-effect control and ±100 the full control effect; potency means the concentration at half of the fitted maximal effect.

Row | SMILES | Potency | activity change, negative = inhibition
1 | O=C(NCc1ccccc1)c1c(F)c(F)c(F)c(F)c1F | inconclusive: 0.828 µM [inhibitor, full curve, poor fit] | 
2 | O=C(NCc1ccc(Cl)c(Cl)c1)c1ccc2c(c1)OCO2 | inconclusive: 8.28 µM [inhibitor, partial curve] | 
3 | COc1ccc(C(=O)N[C@H](C(=O)Nc2nc3ccccc3[nH]2)C(C)C)cc1 |  | inactive: 65.7%
4 | CCc1ccc(NC(=O)COc2coc(CN3CCc4ccccc4C3)cc2=O)cc1 | inconclusive: 9.28 µM [inhibitor, partial curve] | 
5 | CN(CC(=O)NNC(=O)Cc1ccccc1F)S(=O)(=O)c1ccc(Cl)cc1 |  | inactive: 3.7%
6 | C/C(=N\NC(=O)c1ccncc1)c1ccc(N(C)C)cc1 |  | inactive: 80.8%
7 | CC(=O)c1cccc(NC(=O)c2ccc3c(c2)OCO3)c1 | inconclusive: 18.5 µM [inhibitor, single point] | 
8 | Cc1cc(OCC(=O)Nc2ccccc2N2CCCC2)ccc1C(C)C | inconclusive: 11.7 µM [inhibitor, single point] | 
9 | Cc1ccccc1NC(=O)c1ccccc1NC(=O)CCC(=O)O |  | inactive: 3.87%
10 | COc1ccc2[nH]cc(CCNC(C)=O)c2c1 |  | inactive: 26%
11 | Cc1ccccc1NC(=O)c1oc(=O)c2ccccc2c1-c1ccccc1 | inconclusive: 18.5 µM [inhibitor, single point] | 
12 | COc1ccc(CCNS(=O)(=O)c2ccc3c(c2)n(C)c(=O)c(=O)n3C)cc1OC | inconclusive: 0.0041 µM [inhibitor, full curve, poor fit] | 
13 | Cc1ccc(OCC(=O)Nc2cc(-c3nn4c(C)nnc4s3)ccc2C)cc1 | active: 7.38 µM | 
14 | CCOc1ccc(C(=O)NC(C(=O)NCc2ccccc2OC)C(C)C)cc1 (centres undefined) | inconclusive: 4.15 µM [inhibitor, single point] | 
15 | O=C(O)CC(Cc1ccc(Cl)cc1)C(=O)NCc1ccccc1 (centres undefined) | inconclusive: 6.57 µM [inhibitor, partial curve, poor fit] | 
16 | CCc1ccc(NC(=O)C2CCN(S(=O)(=O)c3cnc[nH]3)CC2)cc1 | active: 13.1 µM | 
17 | O=C(CSc1ncn(-c2ccccc2)n1)Nc1ccc(Br)cn1 | inconclusive: 18.5 µM [inhibitor, single point] | 
18 | COCCNc1c2c(nc3c(-c4ccccc4)c(C)nn13)CCCC2 |  | inactive: 8.57%
19 | CCCCc1nnc(NC(=O)C2CC(=O)N(Cc3ccccc3)C2)s1 (centres undefined) | active: 10.4 µM | 
20 | O=C1CCc2cc(S(=O)(=O)N3CCC(C(=O)NCc4ccccc4Cl)CC3)ccc2N1 | active: 13.1 µM | 
21 | CCN1CCN(C(=O)c2cc(-c3ccc(Cl)s3)nc3ccccc23)CC1 | inconclusive: 18.5 µM [inhibitor, single point] | 
22 | O=C(Cc1c[nH]c2ccccc12)Nc1cccc(S(=O)(=O)N2CCCCC2)c1 | inconclusive: 3.29 µM [inhibitor, single point] | 
23 | CCc1noc(C)c1C(=O)NNC(=O)c1ccccc1F |  | inactive: 36.7%
24 | COc1cccc(-n2nnnc2SCC(=O)Nc2ccccc2OC)c1 | active: 9.28 µM | 
25 | CCOC(=O)N1CCC(NC(=O)c2cc(C(=O)Nc3ccc(OCC)cc3)ccc2CO)CC1 | inconclusive: 9.28 µM [inhibitor, partial curve, poor fit] | 

Row | SMILES | Potency | activity change, negative = inhibition
26 | COc1ccccc1Nc1ncnc2c1cnn2-c1cccc(C)c1 |  | inactive: 5.61% [at 5.75 µM]
27 | Cc1[nH]c(=O)[nH]c(=O)c1S(=O)(=O)Nc1ccc(F)cc1F |  | inactive: 10.9%
28 | Cc1nnc2n1-c1ccc(Cl)cc1C(c1ccccc1Cl)=NC2 | inconclusive: 1.69 µM [inhibitor, partial curve, poor fit] | 
29 | CCn1c(SCC(=O)NC2CCCCC2)nnc1-c1cccnc1 |  | inactive: 10.7%
30 | CCN1C(=O)[C@H]2[C@@H](c3ccc(C)cc3)N3C(=O)N(c4cccc(Br)c4)C(=O)[C@@]3(CC)[C@H]2C1=O | inconclusive: 18.5 µM [inhibitor, single point] | 
31 | Cn1cccc1/C=C(\C#N)C(N)=S | inconclusive: 0.329 µM [inhibitor, full curve] | 
32 | COc1ccc(C)cc1C1=Nc2ccccc2C1(C)C |  | inactive: -4.2%
33 | COc1ccc(NC(=O)c2cc3ccccc3cc2OC)cc1OC | inconclusive: 5.22 µM [inhibitor, partial curve] | 
34 | Cc1ccc(NC(=O)c2cccc(C(=O)Nc3ccc(C)c(C)c3)n2)cc1C | inconclusive: 11.7 µM [inhibitor, single point] | 
35 | COc1ccc(S(=O)(=O)NCC(c2cccnc2)N2CCN(c3ccccc3)CC2)cc1C (centres undefined) | inconclusive: 0.465 µM [inhibitor, partial curve, poor fit] | 
36 | OC(C#CCN1CCCCC1)(c1ccccc1)c1ccccc1 | inconclusive: 18.5 µM [inhibitor, single point] | 
37 | Cc1cc(C(=O)Nc2ccc(Nc3ccccc3)cc2)ccc1[N+](=O)[O-] | active: 11.7 µM | 
38 | O=C1C=C(c2cccc(Cl)c2)C[C@@H](c2ccc(F)cc2)C1 | inconclusive: 18.5 µM [inhibitor, single point] | 
39 | O=c1c2ccccc2nc(-c2ccccc2)n1-c1ccccc1 | inconclusive: 0.329 µM [inhibitor, full curve, poor fit] | 
40 | O=C(Nc1ccccc1F)Nc1ccccc1Br |  | inactive: -19.1%
41 | Cc1onc(-c2ccccc2Cl)c1C(=O)NCc1nnnn1-c1ccc(F)cc1 | inconclusive: 16.5 µM [inhibitor, single point] | 
42 | Clc1ccccc1NC1=NCCCS1 |  | inactive: 0%
43 | COCC(C)N(C(=O)CCl)c1c(C)csc1C (centres undefined) |  | inactive: -19.4%
44 | CCOc1ccc(-n2c(N)c(C(=O)NCc3ccco3)c3nc4ccccc4nc32)cc1 |  | inactive: -60.5%
45 | CCCCC1=CC2=C(c3ccco3)C(=O)C(C)(OC(=O)c3ccc(OC)cc3)C(=O)C2=CN1Cc1ccccc1 (centres undefined) | inconclusive: 18.5 µM [inhibitor, single point] | 
46 | CCN(CC)S(=O)(=O)c1ccc(N2CCOCC2)c(NC(=O)c2cc([N+](=O)[O-])ccc2Cl)c1 |  | inactive: 3.35%
47 | Cc1cc(C)c2c(n1)nn1c(NCCN3CCOCC3)cc(C)nc21 |  | inactive: 1.37%
48 | Cc1ccc(S(=O)(=O)N2CCOCC2)cc1C(=O)NC1CCCC1 |  | inactive: 25.8%
49 | COc1cccc(C(=O)Nc2ccccc2C(=O)N2CCCC2)c1 |  | inactive: -24.6%
50 | CC(C)c1ccc(CN(C(=O)c2cccs2)C2CCS(=O)(=O)C2)cc1 (centres undefined) | inconclusive: 2.33 µM [inhibitor, full curve] | 

Quoted from the listing.
Potency with `CC(=O)c1cccc(NC(=O)c2ccc3c(c2)OCO3)c1` reads inconclusive: 18.5 µM [inhibitor, single point]
Potency with `COc1ccc(NC(=O)c2cc3ccccc3cc2OC)cc1OC` reads inconclusive: 5.22 µM [inhibitor, partial curve]

Next entries:

Row | SMILES | Potency | activity change, negative = inhibition
51 | CC1(C)C2([N+](=O)[O-])CNCC1([N+](=O)[O-])CNC2 | inconclusive: 18.5 µM [inhibitor, single point] | 
52 | FC(F)(F)c1cccc(NC(=S)NCc2ccccn2)c1 |  | inactive: 2.32%
53 | COc1ccc(N2CCN(C(=O)c3ccccc3Br)CC2)c([N+](=O)[O-])c1 | active: 11.7 µM | 
54 | CC(C)C[C@@H](CSc1ccc(Br)cc1)N1CCN(C)CCC1=O | inconclusive: 18.5 µM [inhibitor, single point] | 
55 | Cn1c(=O)c(Sc2ccccc2)c(O)c2ccccc21 | inconclusive: 10.4 µM [inhibitor, single point] | 
56 | O=C(Cn1c(-c2ccccc2)c[n+]2ccsc12)c1ccc([N+](=O)[O-])cc1 | inconclusive: 14.7 µM [inhibitor, single point] | 
57 | CC1CCN(C(=O)c2ccc(NS(=O)(=O)c3ccc4[nH]c(=O)[nH]c4c3)cc2)CC1 |  | inactive: -2.63%
58 | Cc1cccc(NC(=O)N2CCC(c3nc4ccccc4o3)CC2)c1 | inconclusive: 11.7 µM [inhibitor, single point] | 
59 | c1cn(CCCNC2=NCCCCC2)cn1 | inconclusive: 0.657 µM [inhibitor, full curve] | 
60 | O=C(C[n+]1cc(-c2ccc(Cl)cc2)n2c1CCC2)N1c2ccccc2Sc2ccccc21 | inconclusive: 2.08 µM [inhibitor, full curve, poor fit] | 
61 | Cc1cc2c(=O)n(C)c(SCC(=O)Nc3cccc(F)c3)nc2s1 |  | inactive: 8.48%
62 | Cc1cc(C(F)(F)F)c2c(N)c(C(=O)Nc3cc(C)on3)sc2n1 | inconclusive: 0.928 µM [inhibitor, full curve, poor fit] | 
63 | COc1cccc(CNC(=O)CCS(=O)(=O)c2ccc3c(c2)oc(=O)n3C)c1 |  | inactive: 26.7%
64 | CC(C)CCN1CCN(Cc2c(F)cccc2Cl)CC1CCO (centres undefined) | inconclusive: 11.7 µM [inhibitor, single point] | 
65 | Cc1ccc(N(C(=O)c2csnn2)C(C(=O)NC2CCCC2)c2cccnc2)c(C)c1 (centres undefined) | inconclusive: 4.15 µM [inhibitor, single point] | 
66 | CC(C)=CC(=O)N1CCCC(N2CCN(c3ccccc3C)CC2)C1 (centres undefined) | inconclusive: 11.7 µM [inhibitor, single point] | 
67 | O=C(Oc1ccc(N(C(=O)c2ccncc2)S(=O)(=O)c2ccc(Cl)cc2)cc1)c1ccncc1 | active: 2.62 µM | 
68 | Cc1cccc(C(=O)OCC(=O)NN2C(=O)NC3(CCC(C)CC3)C2=O)c1O (centres undefined) |  | inactive: 13.7%
69 | O=C(c1cc2cc(F)ccc2[nH]1)N1CCN(C(=O)c2ccco2)CC1 | inconclusive: 7.38 µM [inhibitor, partial curve, poor fit] | 
70 | O=Cc1cc([N+](=O)[O-])ccc1N1CCN(Cc2ccc3c(c2)OCO3)CC1 |  | inactive: -5.41%
71 | CCc1cccc2sc(N3CCN(C(=O)c4ccc([N+](=O)[O-])o4)CC3)nc12 | active: 0.522 µM | 
72 | CCOC(=O)N1CCN(Cc2nc3c(c(=O)n(C)c(=O)n3C)n2Cc2cccc3ccccc23)CC1 | active: 8.28 µM | 
73 | CN(C)S(=O)(=O)c1ccc(N2CCCC2)c(C(=O)Nc2nc3c(ccc4ccccc43)s2)c1 | active: 13.1 µM | 
74 | O=C(c1cc(-c2ccc(Cl)cc2)n(-c2ccc(Cl)c(Cl)c2)n1)N1CCOCC1 | inconclusive: 0.37 µM [inhibitor, full curve] | 

Exported as tab-separated lines: 2 of the compounds above
Row	SMILES	Potency	activity change, negative = inhibition
44	CCOc1ccc(-n2c(N)c(C(=O)NCc3ccco3)c3nc4ccccc4nc32)cc1		inactive: -60.5%
45	CCCCC1=CC2=C(c3ccco3)C(=O)C(C)(OC(=O)c3ccc(OC)cc3)C(=O)C2=CN1Cc1ccccc1 (centres undefined)	inconclusive: 18.5 µM [inhibitor, single point]	
